Values quoted from earlier work as cited in patent publication US7189506B1, “DNA binding compound-mediated molecular switch system” (Genelabs Technologies, Inc.).
At least one structure is not confirmed: it was looked up by name or label, or the drawing left a doubt.

Tested on: TetR
Settings: tet system; cited from earlier work

C[C@H]1c2cccc(O)c2C(=O)C2=C(O)[C@]3(O)C(=O)C(C(N)=O)=C(O)[C@@H](N(C)C)[C@@H]3[C@@H](O)[C@@H]21 [doxycycline]
time to resumption of full promoter activity following removal of inducer: 216 h
